In series [1] the target is GST-JP2NT (junctophilin-2 residues 1-565) (Mus musculus) (UniProt Q9ET78). Description: EMSA. Conditions: purified recombinant protein; protein details: GST.
The target in series [2] is GST-JP2(331-405) DNA-binding domain peptide (Mus musculus) (UniProt Q9ET78). The series can be described thus: EMSA. Conditions: purified recombinant protein; protein details: GST.

The chains behind the UniProt entries cited, without tags or fusion partners. Residues count along the entry.
UniProt Q9ET78, 1-565: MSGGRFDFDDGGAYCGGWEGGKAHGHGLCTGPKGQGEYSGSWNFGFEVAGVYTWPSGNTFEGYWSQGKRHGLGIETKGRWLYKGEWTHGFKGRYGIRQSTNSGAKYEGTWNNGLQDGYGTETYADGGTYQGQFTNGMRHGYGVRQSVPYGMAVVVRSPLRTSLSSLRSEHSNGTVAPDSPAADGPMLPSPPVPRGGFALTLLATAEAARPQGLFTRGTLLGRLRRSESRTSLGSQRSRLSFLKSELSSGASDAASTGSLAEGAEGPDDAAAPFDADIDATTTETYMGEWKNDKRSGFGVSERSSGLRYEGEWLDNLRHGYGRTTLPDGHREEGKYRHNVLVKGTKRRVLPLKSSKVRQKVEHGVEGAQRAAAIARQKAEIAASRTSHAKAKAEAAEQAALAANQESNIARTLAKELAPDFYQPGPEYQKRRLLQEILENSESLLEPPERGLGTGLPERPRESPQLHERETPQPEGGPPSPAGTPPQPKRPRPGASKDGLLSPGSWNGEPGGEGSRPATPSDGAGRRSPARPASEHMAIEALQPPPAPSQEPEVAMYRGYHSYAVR
UniProt Q9ET78, 331-405: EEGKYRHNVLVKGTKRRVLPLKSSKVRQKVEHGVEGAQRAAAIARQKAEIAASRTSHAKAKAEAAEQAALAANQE

We go through two sequences from patent publication US20190307899.

The exact form of at least one protein or probe is not confirmed.

For the sequence “GGCCTTTCCTTCTCCTCTATAAATACCAGCTCTGGTATTTCA (double strand) [desmin MRE WT]”, the binding result in series [1] and in series [2] was “binds” throughout. Turning to “GGGATCTGAGTCGCAGTATAAAAGAAGCTTTTCGGGCGTT (double strand) [cMyc promoter TATA box WT (TATAAA)]”, the binding result in series [1] is given as “binds”.
